# Laboratory results as given in PubChem BioAssay (Tox21).
# Chains of the proteins cited; added tags and fusions are not shown.
# UniProt P14416, whole entry, looked up: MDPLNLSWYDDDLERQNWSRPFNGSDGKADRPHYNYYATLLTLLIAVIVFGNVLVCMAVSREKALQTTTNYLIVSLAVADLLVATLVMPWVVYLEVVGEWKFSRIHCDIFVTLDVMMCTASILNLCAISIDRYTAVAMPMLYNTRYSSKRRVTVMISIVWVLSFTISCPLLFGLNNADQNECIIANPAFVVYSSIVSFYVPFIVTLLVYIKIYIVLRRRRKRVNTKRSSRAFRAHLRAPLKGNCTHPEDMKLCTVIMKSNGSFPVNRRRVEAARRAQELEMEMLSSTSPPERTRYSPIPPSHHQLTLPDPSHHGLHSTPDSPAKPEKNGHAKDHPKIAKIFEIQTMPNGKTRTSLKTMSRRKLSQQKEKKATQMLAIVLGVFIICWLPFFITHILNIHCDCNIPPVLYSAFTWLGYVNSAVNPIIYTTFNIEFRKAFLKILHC
# UniProt P28223, whole entry, looked up: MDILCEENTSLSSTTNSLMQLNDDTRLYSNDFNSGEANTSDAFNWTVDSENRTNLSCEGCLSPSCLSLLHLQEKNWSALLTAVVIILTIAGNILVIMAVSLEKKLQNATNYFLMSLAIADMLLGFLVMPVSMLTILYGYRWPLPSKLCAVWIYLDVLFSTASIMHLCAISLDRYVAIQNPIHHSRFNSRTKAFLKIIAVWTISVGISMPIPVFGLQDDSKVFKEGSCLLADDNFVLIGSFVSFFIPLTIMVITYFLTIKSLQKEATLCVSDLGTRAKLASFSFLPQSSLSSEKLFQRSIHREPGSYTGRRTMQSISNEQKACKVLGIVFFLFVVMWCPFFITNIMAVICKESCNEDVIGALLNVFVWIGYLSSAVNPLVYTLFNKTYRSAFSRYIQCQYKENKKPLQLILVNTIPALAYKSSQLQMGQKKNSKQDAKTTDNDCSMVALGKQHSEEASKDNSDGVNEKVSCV
# “And” between values parts separate entries of the source, which are not always exact repeats. Equal entries are not always repeated. The shares of active, inactive and inconclusive entries below differ from those in the screen. For some assays here: Where the call is inconclusive, the potency comes from a doubtful curve fit. The source made the active and inactive calls. Unless noted, the call rests on the fitted dose curve.
# What was measured:
# [1] = Nuclear factor erythroid 2-related factor 2/antioxidant responsive element (Nrf2/ARE) small molecule agonists: luciferase reporter gene qHTS assay in human keratinocytes (AID 1919969); details: KeratinoSens HaCaT ARE-luciferase, luminescence, 24 h; activity, positive = activation: at 92.4 µM (top of the series); further: nearly all actives have a fitted effect of over 35% in size; further: potency means the concentration at half of the fitted maximal effect; on activity, positive = activation: on the % scale 0 is the no-effect control and ±100 the full control effect
# [2] = p53 small molecule agonists, cell-based qHTS assay with human liver microsomes (AID 1963577); details: HCT-116 p53RE-bla with human liver microsomes, ratio, 16 h; activation: at 66 µM (top of the series) unless noted; further: potency means the concentration at half of the fitted maximal effect;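 on activation: p53 response element beta-lactamase reporter cells with liver microsomes plus NADPH; on the % scale 0 is the no-effect control and ±100 the full control effect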
# Method in brief: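 Metabolically competent format: test substances, human liver microsomes and NADPH (both 0.5 mg/mL final) incubated with p53RE-bla cells 16 h at 37 C. Beta-lactamase reporter signal then quantified by fluorescence.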
# [3] = cAMP Responsive Elements (CRE) small molecule agonists, cell-based qHTS assay (AID 1963590); details: CRE-bla HEK293T, beta-lactamase FRET ratio, 3 h; activation: at 92.4 µM (top of the series) unless noted; further: potency means the concentration at half of the fitted maximal effect; on activation: on the % scale 0 is the no-effect control and ±100 the full control effect
# Method in brief: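 Agonist mode qHTS in CRE-bla HEK 293T cells: compounds dosed from DMSO for 3 h at 37 C/5% CO2, followed by LiveBLAzer B/G FRET substrate for 2 h at room temperature.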
# [4] = cAMP Responsive Elements (CRE) small molecule antagonists, cell-based qHTS assay (AID 1963591; active means well fitted inhibition curve with a large enough effect in the signal ratio in the repeat runs, not every such curve was filed as active; inconclusive means weak or mixed curves, or effect the other way; the % refers to the signal ratio; further: potency means the concentration at half of the fitted maximal effect); details: CRE-bla HEK293T, beta-lactamase FRET ratio; activity change, negative = inhibition: at 92.4 µM (top of the series) unless noted
# Method in brief: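 Antagonist mode: test compounds are co-incubated with the adenylyl cyclase activator NKH477 (0.25 uM final) on CRE-bla HEK293T cells for 3 h at 37 °C, followed by LiveBLAzer substrate loading.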
# [5] = molecular target: Beta-2 adrenergic receptor (Homo sapiens) (UniProt P07550); test: Adrenergic beta2 receptor (ADRB2) small molecule agonists, cell-based qHTS assay (AID 1963593); details: CHO-ADRB2 cells, cAMP HTRF, 30 min; further: potency means the concentration at half of the fitted maximal effect
# Method in brief: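 CHO cells stably over-expressing ADRB2 were plated overnight at 37C, then dosed with compounds plus a stimulation mix containing 100uM IBMX and 25uM Ro-20-1724 for 0.5hr at room temperature. cAMP was measured by HTRF competition, 1hr.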
# [6] = molecular target: D(2) dopamine receptor (Homo sapiens) (UniProt P14416); test: Dopamine D2 receptor (DRD2) small molecule antagonists, cell-based qHTS assay (AID 1963595; active means well fitted inhibition curve with a large enough effect in the signal ratio in the repeat runs, with a control signal flat; inconclusive means weak or mixed curves, or effect the other way; the % refers to the signal ratio; further: on the % scale 0 is the no-effect control and ±100 the full control effect); details: HEK293-DRD2 cAMP HTRF antagonist mode
# Method in brief: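 Human DRD2 antagonist qHTS measuring cAMP by HTRF. The cells are exposed to compound for 10 min, then to NKH477 (200 nM) and quinpirole (12 nM) for 30 min at RT, with Ro20-1724 (0.1 mM) present throughout.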
# [7] = molecular target: 5-hydroxytryptamine receptor 2A (Homo sapiens) (UniProt P28223); test: 5-hydroxytryptamine receptor 2A (HTR2A) small molecule antagonists, cell-based qHTS assay (AID 1963586); further: potency means the concentration at half of the fitted maximal effect; nearly all actives have a fitted effect of over 45% in size
# Method in brief: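 Antagonist-mode intracellular calcium assay: DOI (4 nM) added after 5 min compound pre-incubation at room temperature to dye-loaded HTR2A-CHO cells. Fluorescence followed for 3 min, sampled every second.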
# [8] = molecular target: D(2) dopamine receptor (Homo sapiens) (UniProt P14416); test: Dopamine D2 receptor (DRD2) small molecule agonists, cell-based qHTS assay (AID 1963594); details: HEK293-DRD2 cAMP HTRF, agonist mode, 30 min; activation: at 92.4 µM (top of the series) unless noted; further: potency means the concentration at half of the fitted maximal effect; nearly all actives have a fitted effect of over 35% in size
# Method in brief: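 cAMP accumulation in DRD2-HEK293 cells measured by HTRF after 1 h detection; compounds added 10 min before NKH477 (200nM […]) forskolin-analogue stimulation, 30 min at room temperature, with Ro20-1724 present at 0.1 mM final.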
# [9] = molecular target: Beta-2 adrenergic receptor (Homo sapiens) (UniProt P07550); test: Adrenergic beta2 receptor (ADRB2) small molecule antagonists, cell-based qHTS assay (AID 1963592); details: CHO-ADRB2 cells, isoproterenol-stimulated cAMP HTRF ratio, 0.5 h; activity change, negative = inhibition: at 92.4 µM (top of the series) unless noted; further: on the % scale 0 is the no-effect control and ±100 the full control effect; nearly all actives have a fitted effect of over 50% in size
# Method in brief: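 Cells (CHO, stable ADRB2 overexpression) incubated 18-20hr at 37C; compounds added from DMSO; agonist mix (1nM isoproterenol, 100uM IBMX, 25uM Ro-20-1724) added; 0.5hr RT; d2-cAMP and anti-cAMP-cryptate added; 1hr RT; 665/615 nm read.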
# [10] = p53 small molecule agonists, cell-based qHTS assay with rat liver microsomes (AID 1963578); details: HCT-116 p53RE-bla, beta-lactamase ratio, 16 h; activation: at 66 µM (top of the series) unless noted; further: potency means the concentration at half of the fitted maximal effect
# Method in brief: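 Each plate received p53RE-bla cells, then compound, then rat liver microsomes and NADPH (both 0.5 mg/mL final). Plates were held 16 h at 37 C, and beta-lactamase activity was detected with LiveBLAzer over 2 h.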
# [11] = p53 small molecule agonists, cell-based qHTS assay with human liver microsomes: qHTS cell viability counter screen (AID 1963579); further: potency means the concentration at half of the fitted maximal effect; nearly all actives have a fitted effect of over 45% in size
# Method in brief: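 Tox21 library compounds, delivered from DMSO stocks, were tested on p53RE-bla cells together with 0.5 mg/mL human liver microsomes and 0.5 mg/mL NADPH (final) over 16 h at 37 C; CellTiter-Glo luminescence served as the cytotoxicity measure.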
# [12] = activation: at 92.4 µM (top of the series) unless noted
# [13] = activity change, negative = inhibition: at 92.4 µM (top of the series) unless noted
smiles,measurement,setting,value
N[C@H](C(=O)O)c1ccc(O)cc1,"activity, positive = activation",[1],inactive: 16.5% [at 19 µM]
same,activation,[2],inactive: 0.205% [at 13.5 µM]
same,activation,[3],inactive: -0.179% [at 19 µM]
same,"activity change, negative = inhibition",[4],inactive: 0.811% [at 18.9 µM]
same,activation,[5]; [12],inactive: 19.3% [at 19 µM]
NS(=O)(=O)c1cc2c(cc1Cl)NCNS2(=O)=O,Potency,[1],"inconclusive: 67.5 µM [activator, single point]"
same,Potency,[2],"inconclusive: 12.6 µM [activator, partial curve, poor fit]"
same,Potency,[3],inactive
same,Potency,[4],inactive
same,Potency,[5]; [12],"inactive and inconclusive: 243 nM [inhibitor, single point]"
Clc1nc(Cl)c(Cl)c(Cl)c1Cl,Potency,[1],"inconclusive: 61.1 µM [activator, single point]"
same,Potency,[2],"inconclusive: 40.8 µM [fluorescent, single point]"
same,activation,[5]; [12],inconclusive: 54.9%
same,activation,[5]; at 92.4 µM (top of the series),inactive: -7.36%
same,"activity change, negative = inhibition",[6]; [13],inconclusive: -8.68%
same,"activity change, negative = inhibition",[6]; at 92.4 µM (top of the series),inactive: -9.57%
CC(C)=CC1CC(C)CCO1 (centres undefined),Potency,[1],inactive
same,Potency,[2],inactive
same,Potency,[5]; [12],"inconclusive: 0.969 µM [inhibitor, single point]"
COc1cc(NS(=O)(=O)c2ccc(N)cc2)ncn1,Potency,[1],inactive
same,Potency,[2],inactive
same,Potency,[7],"inconclusive: 0.0008 µM [inhibitor, single point]"
same,Potency,[3],inconclusive: 0.0007 µM
same,Potency,[5]; [12],inactive
same,Potency,[8],"inconclusive: 0.106 µM [falling, single point]"
CC(C(=O)O)c1ccc(/C=C2\CCCCC2=O)cc1 (centres undefined),Potency,[1],active: 23.7 µM
same,Potency,[2],inactive
same,Potency,[3],"inconclusive: 26.6 µM [rising, partial curve]"
same,Potency,[4],"inconclusive: 21.1 µM [activator, partial curve, poor fit]"
same,Potency,[9],inactive
same,activation,[5]; [12],inconclusive: -21.7% [at 42.5 µM]
CCCCC(CC)C(=O)OCCOCCOCCOC(=O)C(CC)CCCC (centres undefined),Potency,[1],"inconclusive: 34.8 µM [activator, partial curve, poor fit]"
same,Potency,[2],"inconclusive: 51.3 µM [fluorescent, partial curve, poor fit]"
same,activation,[5]; [12],inconclusive: -5.7%
same,"activity change, negative = inhibition",[6]; [13],inconclusive: 0.0031%
CN1CCN(C)CC1,Potency,[1],inconclusive: 68.6 µM [activator]
same,Potency,[2],inactive
same,Potency,[3],inactive
same,Potency,[4],inactive
same,activation,[5]; [12],inconclusive: -15.5%
CCNc1nc(NC(C)CC)nc(OC)n1 (centres undefined),Potency,[1],"inconclusive: 68.6 µM [activator, single point]"
same,Potency,[10],"inconclusive: 18.2 µM [fluorescent, single point]"
same,Potency,[11],"inconclusive: 45.8 µM [cytotoxic, single point]"
same,Potency,[4],"inconclusive: 38.6 µM [activator, partial curve, poor fit]"
same,Potency,[9],inactive
CCc1ccc(O)cc1,Potency,[1],inactive
same,Potency,[2],inactive
same,"activity change, negative = inhibition",[4],inconclusive: 1.85%
same,activation,[5]; [12],inconclusive: 5.6%
same,activation,[5]; at 92.4 µM (top of the series),inactive: 27.4%
CC(C)OC(=O)OCOP(=O)(CO[C@H](C)Cn1cnc2c(N)ncnc21)OCOC(=O)OC(C)C,Potency,[1],"inconclusive: 0.106 µM [activator, single point]"
same,Potency,[2],inactive
same,Potency,[5]; [12],"inconclusive: 0.335 µM [activator, partial curve, poor fit]"
COc1ccc(C2CNC(=O)C2)cc1OC1CCCC1 (centres undefined),Potency,[1],"inconclusive: 33.5 µM [activator, single point]"
same,Potency,[2],inactive
same,Potency,[5]; [12],inactive
CCN(CC)c1ccc(N=Nc2ccccc2)cc1,Potency,[1],"inconclusive: 0.172 µM [activator, full curve, poor fit]"
same,Potency,[2],inactive
same,Potency,[3],"inconclusive: 24.3 µM [rising, full curve, poor fit]"
same,Potency,[5]; [12],inactive
OC[C@H](Cc1cccc(O)c1)[C@H](CO)Cc1cccc(O)c1,Potency,[1],inactive
same,Potency,[10],inactive
same,Potency,[11],"inconclusive: 46.9 µM [cytotoxic, partial curve, poor fit]"
same,Potency,[3],inactive
same,Potency,[9],inactive
same,Potency,[5]; [12],"inconclusive: 2.8 µM [inhibitor, single point]"
CN(CC1(C)CCCO1)S(=O)(=O)c1ccc(Cl)c(S(N)(=O)=O)c1 (centres undefined),Potency,[1],inactive
same,Potency,[2],inactive
same,Potency,[3],inactive
same,activation,[5]; [12],inconclusive: -52.6% [at 42.5 µM]
same,"activity change, negative = inhibition",[6]; [13],inconclusive: -3.07% [at 42.5 µM]
C=C/C=C/C=C/CCCCC,Potency,[1],"inconclusive: 14.6 µM [activator, single point]"
same,activation,[2],inactive: -4.49% [at 13.5 µM]
same,Potency,[5]; [12],inconclusive: 0.0461 µM [inhibitor]
